These are yes or no findings as the source states them, for the method shown. Binding seen in cells or lysates may run through a third protein. Binding calls can cover weak binding; strength is not graded here.

Chains of the proteins cited; added tags and fusions are not shown. Lines headed by an entry give the natural chain unless they say otherwise; changes in a name come on top.
UniProt Q9I193: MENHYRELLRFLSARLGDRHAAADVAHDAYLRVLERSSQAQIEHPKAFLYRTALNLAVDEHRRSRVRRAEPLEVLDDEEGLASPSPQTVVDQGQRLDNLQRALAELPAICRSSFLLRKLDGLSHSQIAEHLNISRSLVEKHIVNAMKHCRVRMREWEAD
UniProt G3XCV1: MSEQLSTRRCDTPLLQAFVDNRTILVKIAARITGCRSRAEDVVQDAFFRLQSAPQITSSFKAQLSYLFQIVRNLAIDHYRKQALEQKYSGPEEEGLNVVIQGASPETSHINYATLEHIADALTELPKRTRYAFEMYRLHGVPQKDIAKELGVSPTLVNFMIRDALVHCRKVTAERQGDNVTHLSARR

These results are taken from article PMC4256889.

Test [1] concerns the target His6-FpvI (P. aeruginosa PAO1) (UniProt Q9I193). In words: pull-down; nickel-affinity chromatography of soluble protein from E. coli MC1061 (DE3) co-expressing His6-sigma factor and FpvR(1-89) from pETDuet; 50 mM sodium phosphate pH 8.0, 300 mM NaCl, wash 30 mM imidazole, elution 250 mM imidazole; SDS-PAGE and Western blot.
The target in test [2] is His6-PvdS (P. aeruginosa PAO1) (UniProt G3XCV1). The description is as above.

As to “FpvR_(1–89) (cytoplasmic region of FpvR) (from UniProt Q9I192) (domain or fragment)”, the binding result in test [1] and in test [2] was “binds” each time.
